This note sets out measurements from the supplement of paper PMC12819154, “High-throughput peptide-centric local stability assay extends protein–ligand identification to membrane proteins, tissues and bacteria” (Nature Structural & Molecular Biology, 2025).

The chains behind the UniProt entries cited, without tags or fusion partners. Where a name states a change or a piece, a line headed by the entry shows the natural chain unless it says otherwise.
UniProt P43360, whole entry: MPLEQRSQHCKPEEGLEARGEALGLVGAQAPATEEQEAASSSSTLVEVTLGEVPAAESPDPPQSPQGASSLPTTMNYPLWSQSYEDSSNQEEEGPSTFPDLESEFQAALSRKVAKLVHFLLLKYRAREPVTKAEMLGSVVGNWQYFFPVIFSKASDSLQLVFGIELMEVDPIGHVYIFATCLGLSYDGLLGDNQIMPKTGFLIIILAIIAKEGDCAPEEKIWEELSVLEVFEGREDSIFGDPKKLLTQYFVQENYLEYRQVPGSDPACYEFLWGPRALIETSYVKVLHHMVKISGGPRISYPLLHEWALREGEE
UniProt P40937, whole entry: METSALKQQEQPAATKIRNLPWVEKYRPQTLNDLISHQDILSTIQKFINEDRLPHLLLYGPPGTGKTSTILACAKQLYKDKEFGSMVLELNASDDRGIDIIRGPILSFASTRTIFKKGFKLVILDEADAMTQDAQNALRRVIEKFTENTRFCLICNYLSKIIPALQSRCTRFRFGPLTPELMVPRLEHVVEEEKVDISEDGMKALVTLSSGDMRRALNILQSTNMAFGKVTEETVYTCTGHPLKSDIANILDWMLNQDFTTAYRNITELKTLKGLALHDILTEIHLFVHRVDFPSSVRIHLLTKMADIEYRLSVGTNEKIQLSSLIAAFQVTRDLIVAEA
UniProt P31150: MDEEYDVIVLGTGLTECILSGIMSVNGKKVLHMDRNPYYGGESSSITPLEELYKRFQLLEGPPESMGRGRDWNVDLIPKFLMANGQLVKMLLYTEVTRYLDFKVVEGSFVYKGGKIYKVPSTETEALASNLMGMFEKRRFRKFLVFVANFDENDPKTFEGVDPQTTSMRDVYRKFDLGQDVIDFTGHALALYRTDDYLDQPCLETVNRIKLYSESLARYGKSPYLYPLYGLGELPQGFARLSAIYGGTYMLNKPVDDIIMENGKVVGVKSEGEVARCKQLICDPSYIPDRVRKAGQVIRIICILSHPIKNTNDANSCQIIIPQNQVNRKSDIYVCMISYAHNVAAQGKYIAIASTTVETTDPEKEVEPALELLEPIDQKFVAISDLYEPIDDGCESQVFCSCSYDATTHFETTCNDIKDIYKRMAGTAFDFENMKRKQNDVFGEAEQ
UniProt P35637: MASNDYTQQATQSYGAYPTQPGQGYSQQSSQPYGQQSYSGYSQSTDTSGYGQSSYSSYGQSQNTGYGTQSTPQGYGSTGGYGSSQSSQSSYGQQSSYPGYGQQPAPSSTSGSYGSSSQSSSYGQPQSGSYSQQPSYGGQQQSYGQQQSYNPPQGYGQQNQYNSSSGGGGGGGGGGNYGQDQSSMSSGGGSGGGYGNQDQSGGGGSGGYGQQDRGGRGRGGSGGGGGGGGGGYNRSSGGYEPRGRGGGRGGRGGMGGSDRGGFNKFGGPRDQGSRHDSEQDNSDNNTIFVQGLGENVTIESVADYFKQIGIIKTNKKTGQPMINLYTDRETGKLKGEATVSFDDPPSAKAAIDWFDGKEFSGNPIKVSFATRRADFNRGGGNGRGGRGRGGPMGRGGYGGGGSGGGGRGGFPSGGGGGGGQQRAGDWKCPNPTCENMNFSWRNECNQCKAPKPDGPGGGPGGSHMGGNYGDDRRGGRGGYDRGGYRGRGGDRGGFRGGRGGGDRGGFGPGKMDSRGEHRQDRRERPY
UniProt P40855: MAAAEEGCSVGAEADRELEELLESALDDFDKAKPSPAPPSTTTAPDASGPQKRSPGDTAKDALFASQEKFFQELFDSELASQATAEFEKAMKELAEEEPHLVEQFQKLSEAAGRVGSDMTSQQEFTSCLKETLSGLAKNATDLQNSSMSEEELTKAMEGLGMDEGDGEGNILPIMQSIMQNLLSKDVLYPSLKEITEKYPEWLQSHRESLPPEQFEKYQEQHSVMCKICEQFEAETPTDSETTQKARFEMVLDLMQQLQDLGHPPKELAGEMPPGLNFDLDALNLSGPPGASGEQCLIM
UniProt P29590: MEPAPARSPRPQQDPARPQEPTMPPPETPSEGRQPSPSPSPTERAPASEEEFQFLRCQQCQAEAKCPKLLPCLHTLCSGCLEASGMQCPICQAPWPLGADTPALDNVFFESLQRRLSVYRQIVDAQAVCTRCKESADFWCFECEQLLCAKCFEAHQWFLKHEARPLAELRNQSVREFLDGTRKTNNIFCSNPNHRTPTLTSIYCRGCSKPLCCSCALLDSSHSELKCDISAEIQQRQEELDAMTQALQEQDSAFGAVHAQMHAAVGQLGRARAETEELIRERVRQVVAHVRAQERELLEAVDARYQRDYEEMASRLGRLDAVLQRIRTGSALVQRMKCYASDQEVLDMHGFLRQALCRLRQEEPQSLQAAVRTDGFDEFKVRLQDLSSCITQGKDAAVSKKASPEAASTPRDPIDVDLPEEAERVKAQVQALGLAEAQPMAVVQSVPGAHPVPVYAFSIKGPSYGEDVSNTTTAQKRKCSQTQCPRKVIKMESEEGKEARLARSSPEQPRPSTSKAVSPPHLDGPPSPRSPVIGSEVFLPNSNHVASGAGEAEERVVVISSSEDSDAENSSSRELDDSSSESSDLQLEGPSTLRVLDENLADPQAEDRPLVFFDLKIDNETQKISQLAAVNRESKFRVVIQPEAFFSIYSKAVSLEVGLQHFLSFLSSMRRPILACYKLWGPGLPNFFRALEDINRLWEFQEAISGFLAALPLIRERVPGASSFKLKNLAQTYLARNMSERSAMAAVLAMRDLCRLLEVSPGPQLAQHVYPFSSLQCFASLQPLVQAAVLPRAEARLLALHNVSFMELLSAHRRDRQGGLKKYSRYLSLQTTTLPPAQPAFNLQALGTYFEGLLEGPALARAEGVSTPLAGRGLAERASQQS
UniProt P31939: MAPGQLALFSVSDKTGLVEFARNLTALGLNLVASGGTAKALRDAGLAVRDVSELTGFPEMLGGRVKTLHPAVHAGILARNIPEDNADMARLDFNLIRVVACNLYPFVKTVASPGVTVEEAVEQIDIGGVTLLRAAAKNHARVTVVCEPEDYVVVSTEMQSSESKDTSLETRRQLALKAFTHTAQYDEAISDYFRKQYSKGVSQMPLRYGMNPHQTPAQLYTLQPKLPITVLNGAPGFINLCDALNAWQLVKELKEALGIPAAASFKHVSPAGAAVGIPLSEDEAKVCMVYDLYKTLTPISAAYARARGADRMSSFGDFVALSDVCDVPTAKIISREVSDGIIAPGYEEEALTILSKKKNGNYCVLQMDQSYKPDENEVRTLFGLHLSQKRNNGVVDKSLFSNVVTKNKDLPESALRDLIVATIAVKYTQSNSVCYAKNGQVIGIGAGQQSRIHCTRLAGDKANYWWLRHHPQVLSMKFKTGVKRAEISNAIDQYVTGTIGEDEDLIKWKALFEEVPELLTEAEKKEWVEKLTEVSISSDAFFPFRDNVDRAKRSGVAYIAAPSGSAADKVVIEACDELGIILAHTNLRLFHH
UniProt P31947: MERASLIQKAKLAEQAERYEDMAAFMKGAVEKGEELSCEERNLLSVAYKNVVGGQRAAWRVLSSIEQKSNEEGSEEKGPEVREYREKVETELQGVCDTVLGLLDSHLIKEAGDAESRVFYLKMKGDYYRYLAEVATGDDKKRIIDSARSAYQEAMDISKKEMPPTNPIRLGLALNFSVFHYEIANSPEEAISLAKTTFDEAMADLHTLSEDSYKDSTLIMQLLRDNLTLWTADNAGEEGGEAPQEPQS
UniProt P43897: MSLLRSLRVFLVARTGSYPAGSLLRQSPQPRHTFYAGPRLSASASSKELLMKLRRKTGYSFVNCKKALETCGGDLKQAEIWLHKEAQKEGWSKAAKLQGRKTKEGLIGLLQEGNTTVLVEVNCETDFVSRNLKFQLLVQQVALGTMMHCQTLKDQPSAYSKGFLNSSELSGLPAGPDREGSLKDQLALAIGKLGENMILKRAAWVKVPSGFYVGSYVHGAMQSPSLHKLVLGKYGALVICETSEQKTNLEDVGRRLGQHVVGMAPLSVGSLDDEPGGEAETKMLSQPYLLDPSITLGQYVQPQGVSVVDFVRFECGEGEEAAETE
UniProt P34949: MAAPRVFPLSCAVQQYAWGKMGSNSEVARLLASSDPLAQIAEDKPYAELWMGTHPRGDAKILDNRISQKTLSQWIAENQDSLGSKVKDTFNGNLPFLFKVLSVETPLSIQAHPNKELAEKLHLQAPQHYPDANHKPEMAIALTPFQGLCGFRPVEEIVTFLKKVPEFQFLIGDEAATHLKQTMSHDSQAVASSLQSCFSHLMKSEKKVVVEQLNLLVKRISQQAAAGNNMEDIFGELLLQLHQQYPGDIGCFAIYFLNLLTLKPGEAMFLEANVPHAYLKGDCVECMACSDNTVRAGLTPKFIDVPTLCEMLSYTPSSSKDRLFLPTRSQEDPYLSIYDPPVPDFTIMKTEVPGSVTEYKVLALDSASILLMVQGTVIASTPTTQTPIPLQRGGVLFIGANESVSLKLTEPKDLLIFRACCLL
UniProt P30626: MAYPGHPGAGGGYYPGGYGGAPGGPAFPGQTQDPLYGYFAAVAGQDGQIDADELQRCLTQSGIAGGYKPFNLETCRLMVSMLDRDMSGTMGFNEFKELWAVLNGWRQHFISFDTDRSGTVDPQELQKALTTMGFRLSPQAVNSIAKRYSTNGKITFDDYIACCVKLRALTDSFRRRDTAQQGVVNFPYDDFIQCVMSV

The other results are listed elsewhere or left out. Small differences around the control level are noise.

Compound in this assay: CN[C@@H]1C[C@H]2O[C@@](C)([C@@H]1OC)n1c3ccccc3c3c4c(c5c6ccccc6n2c5c31)C(=O)NC4 [staurosporine]
As to the kind of experiment: log2 fold change of tryptic peptide abundance, ligand vs vehicle (limited proteolysis) (log2 ratio); higher = more trypsin-susceptible (destabilized). The following applies: ligand concentration: 20 uM; sample: K562 cleared lysate; digestion: 4 min, 22 C (HT-PELSA RT4min, Orbitrap Astral).
As to “MAGEA6 (peptide sequence: ALIETSYVK, peptide start residue: 277) (UniProt P43360)”, the log2 fold change is 0.281.

For the target “RFC5 (peptide sequence: LPHLLLYGPPGTGK, peptide start residue: 53) (UniProt P40937)”, the log2 fold change was found to be 0.822.

Take “GDI1 (peptide sequence: RKQNDVFGEAEQ, peptide start residue: 436) (UniProt P31150)”: the log2 fold change is -0.123.

Regarding “FUS (peptide sequence: KTGQPMINLYTDR, peptide start residue: 316) (UniProt P35637)”, the log2 fold change came out at 0.15.

Regarding “UniProt P40855 (peptide sequence: DVLYPSLK, peptide start residue: 186)”, the log2 fold change was 0.329.

In the case of “PML (peptide sequence: ASPEAASTPR, peptide start residue: 402) (UniProt P29590)”, the log2 fold change was -0.483.

Turning to “ATIC (peptide sequence: EALGIPAAASFK, peptide start residue: 255) (UniProt P31939)”, the log2 fold change was -0.191.

As for “SFN (peptide sequence: VLSSIEQK, peptide start residue: 61) (UniProt P31947)”, the log2 fold change was -0.133.

Consider “TSFM (peptide sequence: KTGYSFVNCKK, peptide start residue: 56) (UniProt P43897)”, for which the log2 fold change is -0.346.

Regarding “MPI (peptide sequence: TEVPGSVTEYK, peptide start residue: 350) (UniProt P34949)”, the log2 fold change was found to be 0.448.

As to “SRI (peptide sequence: QHFISFDTDRSGTVDPQELQK, peptide start residue: 107) (UniProt P30626)”, the log2 fold change came out at 0.306.
